The source of these data is paper PMC4071844.

The target of one assay is T1, MYB82-nYFP (Arabidopsis) (UniProt Q9LTF7).
T1 sequence: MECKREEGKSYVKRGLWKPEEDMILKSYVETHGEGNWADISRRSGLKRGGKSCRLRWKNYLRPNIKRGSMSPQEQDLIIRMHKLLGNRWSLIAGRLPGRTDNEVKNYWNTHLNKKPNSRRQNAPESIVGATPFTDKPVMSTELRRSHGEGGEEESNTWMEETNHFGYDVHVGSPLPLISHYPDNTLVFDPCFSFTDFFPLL
The assay can be described thus: split reporter; BiFC: nYFP and cYFP fusions transiently coexpressed in N. benthamiana leaves by Agrobacterium infiltration, 24 °C for 48h before observation.

In another assay the target is T2, MYB82 (Arabidopsis) (UniProt Q9LTF7).
T2 sequence: T1 sequence
In words: two-hybrid; dimer tests of MYB82 and GL1, full length and fragments, in pGBKT7 or pGADT7 (which in which is not told); growth on synthetic dropout medium lacking Leu/Trp/His/Ade and containing 5mM 3AT.

The target of another assay is T3, GL1 (Arabidopsis) (UniProt P27900).
T3 sequence: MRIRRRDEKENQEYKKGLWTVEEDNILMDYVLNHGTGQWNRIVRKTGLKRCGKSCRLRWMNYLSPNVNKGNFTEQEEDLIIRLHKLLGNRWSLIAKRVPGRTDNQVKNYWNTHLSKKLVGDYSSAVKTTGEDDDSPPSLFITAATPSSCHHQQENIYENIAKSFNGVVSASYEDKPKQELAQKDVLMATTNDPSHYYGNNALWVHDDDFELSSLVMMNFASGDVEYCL
The assay is described as above.

The target of assay [1] is nMYB82, N-terminal R2R3-MYB domain of MYB82 (Arabidopsis). The assay can be described thus: two-hybrid; MYB82 and its fragments fused to the BD of pGBKT7, GL3 fused to the AD of pGADT7; growth on synthetic dropout medium lacking Leu/Trp/His/Ade and containing 5mM 3AT.
Assay [2] concerns the target nYFP, N-terminal fragment of yellow fluorescent protein. The assay can be described thus: split reporter; BiFC: nYFP and cYFP fusions transiently coexpressed in N. benthamiana leaves by Agrobacterium infiltration, 24 °C for 48h before observation.

These are yes or no findings as the source states them, for the method shown. For part of these data: Binding calls can cover weak binding; strength is not graded here. For part of these data: Binding seen in cells or lysates may run through a third protein. For part of these data: Where a sequence is shown, tags or fusion partners need not be part of it.

On to “cYFP, C-terminal fragment of yellow fluorescent protein (domain or fragment)”, for which, in the assay with MYB82-nYFP (Arabidopsis), the binding result was “no binding”.
For the molecule “nMYB82, N-terminal R2R3-MYB domain of MYB82 (Arabidopsis) (domain or fragment)”, the binding result in the assay with MYB82 (Arabidopsis) and in the assay with GL1 (Arabidopsis) was “binds” each time.
For the molecule “cMYB82, C-terminal domain of MYB82 (Arabidopsis) (domain or fragment)”, the binding result with MYB82 (Arabidopsis) and with GL1 (Arabidopsis) was “no binding” in each case.
In the case of “nGL1, N-terminal R2R3-MYB domain of GL1 (Arabidopsis) (domain or fragment)”, the binding entry with MYB82 (Arabidopsis) and with GL1 (Arabidopsis) was “binds” each time.

B1: GLABRA3 (GL3) (protein, UniProt Q9FN69 1-637)
chain: MATGQNRTTVPENLKKHLAVSVRNIQWSYGIFWSVSASQSGVLEWGDGYYNGDIKTRKTIQASEIKADQLGLRRSEQLSELYESLSVAESSSSGVAAGSQVTRRASAAALSPEDLADTEWYYLVCMSFVFNIGEGMPGRTFANGEPIWLCNAHTADSKVFSRSLLAKSAAVKTVVCFPFLGGVVEIGTTEHITEDMNVIQCVKTSFLEAPDPYATILPARSDYHIDNVLDPQQILGDEIYAPMFSTEPFPTASPSRTTNGFDQEHEQVADDHDSFMTERITGGASQVQSWQLMDDELSNCVHQSLNSSDCVSQTFVEGAAGRVAYGARKSRVQRLGQIQEQQRNVKTLSFDPRNDDVHYQSVISTIFKTNHQLILGPQFRNCDKQSSFTRWKKSSSSSSGTATVTAPSQGMLKKIIFDVPRVHQKEKLMLDSPEARDETGNHAVLEKKRREKLNERFMTLRKIIPSINKIDKVSILDDTIEYLQELERRVQELESCRESTDTETRGTMTMKRKKPCDAGERTSANCANNETGNGKKVSVNNVGEAEPADTGFTGLTDNLRIGSFGNEVVIELRCAWREGVLLEIMDVISDLHLDSHSVQSSTGDGLLCLTVNCKHKGSKIATPGMIKEALQRVAWIC
Consider B1, for which the binding entry in assay [1] was “binds”.

B2: GL3-cYFP (protein, UniProt Q9FN69 1-637)
chain: B1 chain
Turning to B2, in assay [2], the binding result is “no binding”.
